Consider one substance from publication PMC4150809.

The test concerns the target Flag-tagged PRMT5 (UniProt O14744). In words: affinity purification with mass spectrometry; anti-FLAG M2 affinity gel immunoprecipitates from K562 cells stably overexpressing PRMT5-FLAG, eluted with 3x FLAG peptide, SDS-PAGE, bands excised, electrospray-ion trap tandem mass spectrometry.

No constants are given. Whether binding was seen depends on the method and setting. In cells and extracts the contact can be indirect. These calls come from enrichment with a bait or labelling near it, and not all partners need be listed.

For “LYAR (human homologue of mouse Ly-1 antibody reactive clone) (from UniProt Q9NX58 1-379)”, the binding result was “binds”.
